Data source: PubChem BioAssay AID686943 (Drosophila RNAi Screening Center, 2013)
Screen: 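Fly genes whose loss alters ERK activation after insulin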 (primary screen). System: Drosophila S2R+ haemocyte-like cells expressing YFP-tagged ERK (Rolled). Reagents: long dsRNA against Drosophila genes. Challenge: insulin stimulation versus unstimulated cells; dose and duration not given. Read-out: 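Per-plate z-scores of phospho-ERK immunostaining normalised to YFP-tagged ERK, measured with and without insulin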. Scale: replicate 1, z-score of dpERK with insulin and replicate 2, z-score of dpERK with insulin: higher = more active ERK per ERK-YFP after insulin.
In all, the deposit lists about 23,000 reagents; this is an unselected part of those with a known target gene and a result. 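Extra replicates exist only for a retested subset of genes; insulin dose and duration not given; both raised and lowered dpERK matter.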 The numbers tell different reagents against one gene apart. A plus sign joins genes that one reagent is predicted to hit. Not all columns of the deposit are shown. The record does not give: the amount of reagent, the time to read-out.

What did the screen give for CG11893?
replicate 1, z-score of dpERK with insulin: -0.12; replicate 2, z-score of dpERK with insulin: -0.17

How did the screen score rn (rotund) #1?
replicate 1, z-score of dpERK with insulin: -3.13; replicate 2, z-score of dpERK with insulin: -3.69

For rn (rotund) #2, how do the results read?
replicate 1, z-score of dpERK with insulin: 0.76; replicate 2, z-score of dpERK with insulin: -0.28

Which result is listed for rn (rotund) #3?
replicate 1, z-score of dpERK with insulin: -1.03; replicate 2, z-score of dpERK with insulin: -0.76

With rn (rotund) #4, how do the results read?
replicate 1, z-score of dpERK with insulin: 0.05; replicate 2, z-score of dpERK with insulin: -1.19

For rn (rotund) #5, what was measured?
replicate 1, z-score of dpERK with insulin: -0.84; replicate 2, z-score of dpERK with insulin: -1.78

How did the screen score CG32278 + CG14963?
replicate 1, z-score of dpERK with insulin: -0.08; replicate 2, z-score of dpERK with insulin: -0.22

What did the screen give for COX4 (Cytochrome c oxidase subunit 4)?
replicate 1, z-score of dpERK with insulin: -0.76; replicate 2, z-score of dpERK with insulin: 0.43

With CG17760, how do the results read?
replicate 1, z-score of dpERK with insulin: 1.03; replicate 2, z-score of dpERK with insulin: -0.18

For CG42372 + CG30100, how do the results read?
replicate 1, z-score of dpERK with insulin: -0.16; replicate 2, z-score of dpERK with insulin: -0.16

What is on record for FLASH (FLICE-associated huge protein)?
replicate 1, z-score of dpERK with insulin: -0.36; replicate 2, z-score of dpERK with insulin: 0.86

For He + NimB5, what does the deposit list?
replicate 1, z-score of dpERK with insulin: -0.6; replicate 2, z-score of dpERK with insulin: 0.44

With CG12213 #1, what was measured?
replicate 1, z-score of dpERK with insulin: 0.14; replicate 2, z-score of dpERK with insulin: 0.76

For CG12213 #2, what does the deposit list?
replicate 1, z-score of dpERK with insulin: 0.08; replicate 2, z-score of dpERK with insulin: 0.1

With CG13856, what was measured?
replicate 1, z-score of dpERK with insulin: 0.15; replicate 2, z-score of dpERK with insulin: -0.54

For LanA (Laminin A), what does the deposit list?
replicate 1, z-score of dpERK with insulin: 0.38; replicate 2, z-score of dpERK with insulin: 0.2

How did the screen score CG13795?
replicate 1, z-score of dpERK with insulin: 1.33; replicate 2, z-score of dpERK with insulin: -0.17

What did the screen give for Tsp42En (Tetraspanin 42En)?
replicate 1, z-score of dpERK with insulin: 0.95; replicate 2, z-score of dpERK with insulin: 0.33

Which result is listed for SdhC (Succinate dehydrogenase, subunit C)?
replicate 1, z-score of dpERK with insulin: -0.29; replicate 2, z-score of dpERK with insulin: -0.91

For CG12817, how do the results read?
replicate 1, z-score of dpERK with insulin: 0.71; replicate 2, z-score of dpERK with insulin: 0.49

How did the screen score CG31960?
replicate 1, z-score of dpERK with insulin: -0.44; replicate 2, z-score of dpERK with insulin: 0.72

With wfs1 (wolfram syndrome 1), what does the deposit list?
replicate 1, z-score of dpERK with insulin: 0.35; replicate 2, z-score of dpERK with insulin: 1.08

How did the screen score CG34256?
replicate 1, z-score of dpERK with insulin: 0.09; replicate 2, z-score of dpERK with insulin: -0.23

How did the screen score CG2656?
replicate 1, z-score of dpERK with insulin: -0.42; replicate 2, z-score of dpERK with insulin: 0.07

Which result is listed for Nup62 (Nucleoporin 62kD)?
replicate 1, z-score of dpERK with insulin: -0.09; replicate 2, z-score of dpERK with insulin: -0.06

With Vps29 (Vacuolar protein sorting 29), what was measured?
replicate 1, z-score of dpERK with insulin: 0.47; replicate 2, z-score of dpERK with insulin: 0.39

For CG3719, what was measured?
replicate 1, z-score of dpERK with insulin: -0.67; replicate 2, z-score of dpERK with insulin: 1

What is on record for AP-1-2beta (Adaptor Protein complex 1/2, beta subunit)?
replicate 1, z-score of dpERK with insulin: 2.34; replicate 2, z-score of dpERK with insulin: 1.23

What did the screen give for CG6333?
replicate 1, z-score of dpERK with insulin: 1.08; replicate 2, z-score of dpERK with insulin: 0.29

With Myo10A (Myosin 10A) #1, how do the results read?
replicate 1, z-score of dpERK with insulin: -1.9; replicate 2, z-score of dpERK with insulin: -2

For Myo10A (Myosin 10A) #2, what was measured?
replicate 1, z-score of dpERK with insulin: -0.57; replicate 2, z-score of dpERK with insulin: 0.16

For Myo10A (Myosin 10A) #3, what does the deposit list?
replicate 1, z-score of dpERK with insulin: -0.01; replicate 2, z-score of dpERK with insulin: 0.2

For Ir67a (Ionotropic receptor 67a), what was measured?
replicate 1, z-score of dpERK with insulin: 0.29; replicate 2, z-score of dpERK with insulin: 0.51

What did the screen give for CG10005?
replicate 1, z-score of dpERK with insulin: 0.14; replicate 2, z-score of dpERK with insulin: 0.52

For CG12374, how do the results read?
replicate 1, z-score of dpERK with insulin: -0.04; replicate 2, z-score of dpERK with insulin: 0.37

What did the screen give for CG6071?
replicate 1, z-score of dpERK with insulin: -0.69; replicate 2, z-score of dpERK with insulin: 0.82

For Pif1A (PFTAIRE-interacting factor 1A) #1, what does the deposit list?
replicate 1, z-score of dpERK with insulin: 0.57; replicate 2, z-score of dpERK with insulin: 0.09

With Pif1A (PFTAIRE-interacting factor 1A) #2, what does the deposit list?
replicate 1, z-score of dpERK with insulin: 0.74; replicate 2, z-score of dpERK with insulin: -0.09

Which result is listed for smal (smoke alarm) #1?
replicate 1, z-score of dpERK with insulin: 0.49; replicate 2, z-score of dpERK with insulin: -0.33

Which result is listed for smal (smoke alarm) #2?
replicate 1, z-score of dpERK with insulin: -1.15; replicate 2, z-score of dpERK with insulin: 0.08

With smal (smoke alarm) #3, what was measured?
replicate 1, z-score of dpERK with insulin: 0.19; replicate 2, z-score of dpERK with insulin: 0.3

For smal (smoke alarm) #4, how do the results read?
replicate 1, z-score of dpERK with insulin: 0.04; replicate 2, z-score of dpERK with insulin: 0.62

How did the screen score smal (smoke alarm) #5?
replicate 1, z-score of dpERK with insulin: -0.29; replicate 2, z-score of dpERK with insulin: -0.96

Individual results from the entries so far:
Result for CG10005 in “replicate 2, z-score of dpERK with insulin”: 0.52
For “replicate 1, z-score of dpERK with insulin”, smal (smoke alarm) #5 shows -0.29
Nup62 (Nucleoporin 62kD), replicate 1, z-score of dpERK with insulin: -0.09
Result for rn (rotund) #4 under “replicate 1, z-score of dpERK with insulin”: 0.05
For “replicate 1, z-score of dpERK with insulin”, wfs1 (wolfram syndrome 1) shows 0.35
